The campaign covered roughly 200,000 compounds. About 25 (0.01%) were called active. The inconclusive results got no clear call from the source; some entries with a clear call stand among them for comparison. The call rests on the fitted dose curve; in most records, active means well fitted inhibition curve with a large enough effect in the signal ratio, with a control signal flat (not every such curve was filed as active); inconclusive means small, poorly fitted or top-dose-only effect, or effect the other way, or a change in a side signal; inactive means flat fitted curve, though single readings scatter; the % refers to the signal ratio. Potencies beside an inconclusive call are fits to weak or partial responses and may not hold up.
Assay: qHTS Assay for Modulators of Lamin A Splicing
Conditions: HeLa LMNA splicing GFP/RFP minigene ratio, 48 h; ratio change, negative = inhibition: at 46.1 µM (top of the series) unless noted
From the text: NCGC Assay Overview: Hutchinson-Gilford Progeria Syndrome (HGPS) is a pediatric premature aging disease caused by a spontaneous mutation in the lamin A/C (LMNA) gene. The mutation activates a cryptic splice site in the LMNA pre-mRNA which results in production of a pre-lamin A protein that cannot be processed properly. The mutant protein accumulates in the nucleus and negatively affects numerous cellular functions. Correction of the splicing defect in HGPS patient cells using a targeted oligonucleotide (exo11) leads to reversal of the cellular disease phenotypes. To identify small molecule modulators of aberrant LMNA splicing, a homogenous assay was constructed in HeLa cells that used a GFP containing minigene to report on correction of aberrant splicing in lamin A and a RFP (DsRed2) to report on cell viability, uniformity and nonspecific effects on the assay signal. This assay was adapted to laser-scanning microplate cytometry (Acumen, TTP Labtech) where miniaturization of the assay to a 1,536-well plate format was possible. References: Bowen, W. P.; Wylie, P. G. Application of Laser-Scanning Fluorescence Microplate Cytometry in High Content Screening. Assay Drug Dev Technol 2006;4:209-221. Scaffidi P, Misteli T. Reversal of the cellular phenotype in the premature aging disease Hutchinson-Gilford progeria syndrome. Nat.
NCGC Assay Protocol Summary: Reagents/Controls: Stable clones expressing DsRed2 and lamin A-EGFP were generated by Cell and Molecular Technologies in S3 HeLa cells. HeLa cells were prepared for the assay when they were 70-90% confluent. The cells were counted and resuspended in Opti-MEM I (no phenol red; Gibco), 2% FBS, 1% penicillin/ streptomycin (Gibco) at concentration of 120 cells/uL concentration. The suspension was passed through a Falcon basket filter with pore size 40um (Beckton Dickson). Control titrations: column […] 1536-well plate contained a sixteen point titration (1:2 dilutions) in duplicate of ancitabine (Sigma: A8598) beginning at 40 uM final concentration. Column 2 contained a sixteen point titration (1:2 dilutions) of cycloheximide beginning at 1.4 mM final concentration. Column 3 contained ancitabine at 40 uM and column 4 contained was the vehicle control (0.5% DMSO final concentration). Assay Steps: 5 uL of HeLa cells were plated in Aurora LoBase black clear bottom (cyclic-olefin polymer) 1536-well plates at a final density of 600 cells/well. Controls and library compounds were added with a 1536-well pin array using the Kalypsys pin-tool. The plates were then incubated for 48 hrs in a cell-culture incubator (37 °C; 5% CO2, 98% humidity). Following incubation the plates were read on the Acumen Explorer using the 488 nm laser. Data was collected on objects between 10 and 100 um in size. Cell objects were defined by a 15 um width x 10 um depth filter. The ratio of the total object intensity in PMT1 (500-530 nm emission; GFP) over PMT3 (575-640 nm emission; RFP) was calculated for analysis. Keywords: NIH Roadmap, MLSCN, MLI, MLSMR, qHTS, NCGC, lamin A, Progeria, RNA splicing.
On the % scale 0 is the no-effect control and ±100 the full control effect; potency means the concentration at half of the fitted maximal effect.

| Structure (SMILES) | Potency | ratio change, negative = inhibition |
| --- | --- | --- |
| O=c1c(-c2nnc(SCc3ccc(Cl)cc3Cl)o2)cccn1Cc1ccccc1 | inconclusive: 14.1 µM [cytotoxic, single point] | – |
| CCCSc1nnc(Sc2nnnn2-c2ccccc2)s1 | inconclusive: 35.5 µM [cytotoxic, single point] | – |
| CCC(=Nc1ccc(Cc2ccncc2)cc1)c1c(O)n(C)c(=O)n(C)c1=O | – | inconclusive: -40.7% |
| Cc1nc2c(-c3ccccc3)c(C)[nH]n2c(=O)c1Cc1ccccc1 | – | inconclusive: -15.8% [at 46 µM] |
| CSC1=C(C#N)C2(CCCC2)C(C#N)=C(N)N1 | – | inconclusive: 11.7% |
| C/C(=N\N1C(=O)CSC1=S)c1ccc(Br)cc1 | – | inconclusive: -23.7% [at 46 µM] |
| COc1ccc(C(=O)COC(=O)/C=C/c2ccc(S(=O)(=O)Nc3cccc(S(N)(=O)=O)c3)cc2)cc1 | – | inconclusive: -13% [at 46 µM] |
| Cc1cccc2sc(N(CCCN(C)C)C(=O)c3ccco3)nc12 | inconclusive: 35.5 µM [inhibitor, single point] | – |
| CN(C)c1cc2c(cc1NS(=O)(=O)c1ccccc1)n(C)c(=O)n2C | – | inconclusive: 6.64% [at 46 µM] |
| CCOC(=O)c1ccc(NC(=O)CSc2nnc(-c3ccncc3)n2-c2ccccc2)cc1 | – | inconclusive: 9.44% [at 46 µM] |
| CCN(C(=O)CSc1nc2ccccc2n1Cc1ccccc1C#N)c1ccccc1 | – | inconclusive: 1.97% [at 46 µM] |
| O=C(Cc1cn(Cc2cccc(Cl)c2)c2ccccc12)N1CCCC1 | inconclusive: 35.5 µM [fluorescent, single point] | – |
| CNC(=S)N1CCn2cccc2C1c1cc(OC)c(OC)c(OC)c1 (centres undefined) | – | inconclusive: 14.3% [at 46 µM] |
| COc1ccccc1CNc1ncncc1-c1ccccc1OC | – | inconclusive: -10.9% |
| CCN(CC)CC(=O)Nc1sc(C)c(C)c1C(=O)c1ccc(C)cc1 | inconclusive: 11.2 µM [inhibitor, single point] | – |
| CCCOC(=O)C1=C(C)NC2=C(C(=O)CCC2)C1c1ccc(N(C)C)cc1 (centres undefined) | – | inactive: -2.42% |
| COC(=O)c1ccc(N=NNc2ccc(C(=O)OC)cc2)cc1 | – | inactive: -2.66% |
| CCCCc1ccc(C2C(C#N)=C(N)SC(N)=C2C#N)s1 | – | inactive: 22.1% |
| C=CCc1ccccc1OCC(=O)N/N=C/c1ccc(OC(C)=O)cc1OC(C)=O | inconclusive: 12.6 µM [fluorescent, partial curve] | – |
| Cc1cc(C)c(NC(=O)C(=O)NCC(c2cccnc2)N2CCN(c3ccccc3F)CC2)c(C)c1 (centres undefined) | – | inactive: -21.4% [at 46 µM] |

| Structure (SMILES) | Potency | ratio change, negative = inhibition |
| --- | --- | --- |
| CCOC(=O)CSc1nc2ccc(N3CCOCC3)cc2c(=O)n1Cc1ccc2c(c1)OCO2 | – | inconclusive: 10.6% |
| C=CCN(CC=C)S(=O)(=O)c1ccc(C(=O)Nc2nnc(CSC)o2)cc1 | – | inconclusive: -16.8% [at 46 µM] |
| CCn1c(NCc2cc(Br)ccc2NS(=O)(=O)c2ccc(C)cc2)nc2ccccc21 | – | inconclusive: 32.7% |
| COc1ccc(Cl)cc1NC(=O)CSc1nnc2[nH]c(=O)cc(-c3ccccc3)n12 | inconclusive: 35.5 µM [inhibitor, single point] | – |
| CCOc1ccc(CCNC(=O)C2CCCN(C(=O)N(C)C)C2)cc1OCC (centres undefined) | – | inactive: -5.22% |
| Cc1cccc(NC(=O)CN2NS(=O)(=O)c3ccccc3C2=O)c1 | – | inactive: -9.79% |
| Cc1ccc(CSCC(=O)N2CCOCC2)cc1 | – | inactive: -0.346% |
| COc1ccccc1N1CCN(C(=O)c2cc(-c3cccc(Cl)c3)on2)CC1 | – | inconclusive: -16.7% |
| CN1CCN(S(=O)(=O)c2cccc(C(=O)Nc3sc4c(c3C(N)=O)CCCC4)c2)CC1 | – | inconclusive: 7.92% |
| CCn1c(SCC(=O)NC(=O)NCc2ccco2)nc2sc(C)c(C)c2c1=O | – | inconclusive: 36.5% |
| Cc1ccc(/C=C/C(=O)NC2=NCCS2)cc1 | – | inconclusive: -6.74% |
| O=c1oc2ccc3ccccc3c2cc1-c1nnc(Nc2cc(C(F)(F)F)ccc2Cl)s1 | – | inactive: 2.55% [at 46 µM] |
| CC(=O)C1=C(O)CC(c2ccccc2)CC1=NCCc1c(C)[nH]c2ccccc12 (centres undefined) | – | inactive: 11% |
| Cc1nc(N2CCCC2)ncc1C(=O)NCc1ccccc1Cl | – | inconclusive: 11.1% [at 46 µM] |
| CCOc1cc(NC(=O)c2ccco2)c(OCC)cc1NC(=O)c1cc(OC)c(OC)c(OC)c1 | – | inconclusive: -2.04% |
| COc1ccc(/C=C2\CCC(C3CCCC3)C2=O)cc1Cn1cccn1 (centres undefined) | – | inconclusive: -36.2% |
| C=CCc1cc(OC)ccc1OCC(O)CN1CCN(c2ccc(OC)cc2)CC1 (centres undefined) | – | inactive |
| CN(c1ccc([N+](=O)[O-])cc1C(N)=O)C1CCCCC1 | – | inconclusive: 17% [at 46 µM] |
| COc1ccccc1NC(=O)CC1SC(=N)N(c2ccccc2)C1=O (centres undefined) | – | inconclusive: -10.2% [at 46 µM] |

Among those listed so far, these contain two or more sulfur atoms:

| Structure (SMILES) | Potency | ratio change, negative = inhibition |
| --- | --- | --- |
| CCCSc1nnc(Sc2nnnn2-c2ccccc2)s1 | inconclusive: 35.5 µM [cytotoxic, single point] | – |
| C/C(=N\N1C(=O)CSC1=S)c1ccc(Br)cc1 | – | inconclusive: -23.7% [at 46 µM] |
| COc1ccc(C(=O)COC(=O)/C=C/c2ccc(S(=O)(=O)Nc3cccc(S(N)(=O)=O)c3)cc2)cc1 | – | inconclusive: -13% [at 46 µM] |
| CCCCc1ccc(C2C(C#N)=C(N)SC(N)=C2C#N)s1 | – | inactive: 22.1% |
| C=CCN(CC=C)S(=O)(=O)c1ccc(C(=O)Nc2nnc(CSC)o2)cc1 | – | inconclusive: -16.8% [at 46 µM] |
| CN1CCN(S(=O)(=O)c2cccc(C(=O)Nc3sc4c(c3C(N)=O)CCCC4)c2)CC1 | – | inconclusive: 7.92% |
| CCn1c(SCC(=O)NC(=O)NCc2ccco2)nc2sc(C)c(C)c2c1=O | – | inconclusive: 36.5% |

— PubChem BioAssay AID1487 (National Center for Advancing Translational Sciences (NCATS), 2009)
